The values that follow come from article PMC10140173.

The target in this assay is T1, White Collar 2 (WC-2) (Neurospora crassa (endogenous in Neurospora)) (UniProt P78714).
T1 sequence: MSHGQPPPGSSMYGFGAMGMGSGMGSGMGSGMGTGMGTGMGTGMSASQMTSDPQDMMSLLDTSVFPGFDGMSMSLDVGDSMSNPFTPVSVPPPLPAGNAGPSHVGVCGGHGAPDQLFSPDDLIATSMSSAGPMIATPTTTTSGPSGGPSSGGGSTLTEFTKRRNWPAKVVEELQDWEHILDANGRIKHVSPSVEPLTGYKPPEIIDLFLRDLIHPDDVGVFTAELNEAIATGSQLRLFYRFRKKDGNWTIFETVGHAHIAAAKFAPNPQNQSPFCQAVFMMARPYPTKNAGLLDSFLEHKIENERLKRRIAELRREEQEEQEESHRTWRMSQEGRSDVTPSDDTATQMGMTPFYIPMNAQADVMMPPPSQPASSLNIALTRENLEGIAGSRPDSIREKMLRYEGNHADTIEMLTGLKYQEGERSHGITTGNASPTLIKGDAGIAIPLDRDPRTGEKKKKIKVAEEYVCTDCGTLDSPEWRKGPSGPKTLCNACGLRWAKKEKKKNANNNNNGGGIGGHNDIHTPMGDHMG
The assay is described as follows: co-IP; immunoprecipitation with WC-2 antiserum from extracts of the l-frq and s-frq strains grown at 20 °C and 30 °C; preimmune serum as control.

No constants are given. Whether binding was seen depends on the method and setting. Binding seen in cells or lysates may run through a third protein. Some binding calls cover weakened binding; strength is not graded here.

B1: small FRQ (s-FRQ), FREQUENCY protein isoform lacking the N-terminal 99 aa (protein, UniProt P19970 100-989)
chain: MEVDPPFYQKETDSSNEESRYPPGRNPVHPPGGVQLPGFRPVAAHSSAADDYRSVIDDLTVENKRLKEELKRYKQFGSDVMRKEKLFEIKVHGLPRRKKRELEATLRDFAASLGDSSESTSQRRKTGRHGTAVHSSGVSLSKHDSSSSSRSRPVDSAYNSMSTGRSSHAPHSSGPSLGRPSLTRAKSVGTQKVENYLRDTPDGLLPHHIVMTDKEKKKLVVRRLEQLFTGKISGRNMQRNQSMPSMDAPLAPEGTNMAPPRPPPEGLREACIQLQDGDNPRKNRSSKDNGSASNSGGDQTELGGTGTGSGDGSGSGGRTGNNTSPPGAIAPDQRPTRPRDLDPDRVQIPSENMDYIRHLGLVSPEFLQGSRTSYQDVAPDAEGWVYLNLLCNLAQLHMVNVTPSFIRQAVSEKSTKFQLSADGRKIRWRGGTDGTKFSSDSSEDKSQQSPMTEDTEDGSDKNGRRKKRKTQQASSEIGRFGPSRSPSDTFHYKPMFVHRNSSSIETSLEESMSQGSEDAVDESNMGNSKWDFSGSGTTQQRRKRRYDGAIVYYTGAPFCTDLSGDPGDMSPTAQMTAGREVEGSGSGDEVEHVLQRTLSGSSLPIRPLSDDRARVAEVLDFDPGNPPELVADDGSSPNDEDFVFPWCEDPAKVRIQPIAKEVMEPSGLGGVLPDDHFVMLVTTRRVVRPILQRQLSRSTTSEDTAEFIAERLAAIRTSSPLPPRSHRLTVAPLQVEYVSGQFRRLNPAPLPPPAIFYPPFSTDSSWDDGDDLASDDEEVEEVEEDSYSEGQISRRANPHFSDNNTYMRKDDLAFDTETDVRMDSDDNRLSDSGHNMRAMMPRAEAVDGDDSPLAAVTGKEVDMLHTGSSVATAGGAESGYSSSMEDVSSS
For B1, the binding result is “binds”.
